In paper PMC10550997 one finds binding data, which are given here for 1 substance.

Sequences of proteins named here, by UniProt entry; tags and fusion partners are left off.
UniProt P09542: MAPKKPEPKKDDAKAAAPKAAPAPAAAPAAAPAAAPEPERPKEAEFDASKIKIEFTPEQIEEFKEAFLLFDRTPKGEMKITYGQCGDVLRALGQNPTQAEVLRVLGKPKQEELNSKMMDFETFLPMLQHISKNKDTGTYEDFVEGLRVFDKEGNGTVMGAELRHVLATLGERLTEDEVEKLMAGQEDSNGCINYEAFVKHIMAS
UniProt Q64331: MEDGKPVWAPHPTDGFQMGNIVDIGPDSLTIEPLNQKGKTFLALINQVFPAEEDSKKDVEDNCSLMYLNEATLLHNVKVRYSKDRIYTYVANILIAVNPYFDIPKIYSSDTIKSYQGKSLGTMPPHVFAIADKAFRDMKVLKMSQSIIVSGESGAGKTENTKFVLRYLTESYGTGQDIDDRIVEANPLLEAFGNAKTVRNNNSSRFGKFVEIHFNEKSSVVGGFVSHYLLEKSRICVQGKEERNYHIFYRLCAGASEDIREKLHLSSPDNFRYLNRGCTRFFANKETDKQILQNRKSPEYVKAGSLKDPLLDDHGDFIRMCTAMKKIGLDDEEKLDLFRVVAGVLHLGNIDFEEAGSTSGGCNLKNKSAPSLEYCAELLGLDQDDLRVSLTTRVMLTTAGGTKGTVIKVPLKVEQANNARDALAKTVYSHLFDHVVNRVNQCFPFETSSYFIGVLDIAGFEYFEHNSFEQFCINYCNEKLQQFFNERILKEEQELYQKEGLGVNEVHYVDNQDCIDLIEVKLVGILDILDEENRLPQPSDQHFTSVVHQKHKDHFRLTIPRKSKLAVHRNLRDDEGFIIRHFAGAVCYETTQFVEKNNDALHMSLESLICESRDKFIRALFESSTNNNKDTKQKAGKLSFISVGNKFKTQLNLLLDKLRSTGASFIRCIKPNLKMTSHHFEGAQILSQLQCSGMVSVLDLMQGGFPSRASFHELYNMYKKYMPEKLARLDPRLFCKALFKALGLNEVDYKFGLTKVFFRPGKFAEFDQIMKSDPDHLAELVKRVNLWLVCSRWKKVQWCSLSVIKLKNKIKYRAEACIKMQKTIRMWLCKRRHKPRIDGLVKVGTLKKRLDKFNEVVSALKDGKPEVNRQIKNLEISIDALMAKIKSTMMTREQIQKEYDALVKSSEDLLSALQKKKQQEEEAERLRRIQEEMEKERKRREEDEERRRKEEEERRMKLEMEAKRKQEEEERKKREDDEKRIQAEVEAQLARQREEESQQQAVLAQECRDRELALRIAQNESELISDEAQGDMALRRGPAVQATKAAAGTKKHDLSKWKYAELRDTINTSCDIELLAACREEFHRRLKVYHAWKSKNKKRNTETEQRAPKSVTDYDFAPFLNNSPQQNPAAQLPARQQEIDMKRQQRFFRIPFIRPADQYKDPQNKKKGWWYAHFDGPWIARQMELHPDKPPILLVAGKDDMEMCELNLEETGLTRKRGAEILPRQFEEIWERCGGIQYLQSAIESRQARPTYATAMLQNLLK

Results are given in words; binding and its absence hold for the method and conditions named. Binding seen in cells or lysates may run through a third protein. Some results given as binding are weak or reduced against the parent protein; the word gives no strength.

The experiment concerns the target myosin light chain 3 (mouse (endogenous in mouse primary chondrocytes)) (UniProt P09542). Description: co-IP; endogenous proteins from mouse primary chondrocyte lysates (40 mM HEPES pH 7.4, 2 mM EDTA, 0.3% CHAPS); primary antibody overnight at 4 °C, Protein A + G Sepharose, three washes, immunoblot; control IgG; cells also treated with H2O2 or transfected with control, Myl3-KD or Myl3-OE. In general terms: Immunoblotting shows a protein as a band on a membrane.

Consider myosin VI (from UniProt Q64331 1-1262), for which the binding result is given as “binds”.
